PubChem BioAssay AID504791 – Drosophila RNAi Screening Center – 2011

Test: 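Genes whose knock-down strengthens or weakens small-RNA reporter silencing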 (primary screen)
System: Drosophila S2-derived reporter cells
Reagent: long dsRNA against Drosophila genes, about 150-250 ng dsRNA per well (siRNA assay); about 80-120 ng (miRNA assay)
Duration: about 5 days (siRNA assay); about 4 days (miRNA assay)
Challenge: copper sulfate induction of reporters: 25 µM (siRNA assay); 200 mM stated (miRNA assay), 1-2 days before reading
Read-out: 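Dual luciferase assay: Renilla to firefly signal ratio in each well, scaled to the mean ratio of its plate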
Direction: siRNA reporter hit score: higher = 3 marks a strong hit with raised ratio; -3 a strong hit with lowered ratio
Rule for the call: 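First-pass picks had plate-scaled ratios over 1.5 for the siRNA assay, over 1.6 for the miRNA assay, or under 0.6; two distinct dsRNAs had to score alike on retest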
The screen tested about 23,000 reagents; this is an unselected part of those that have a named target and a result. Of all reagents, 199 (0.86%) were called active. 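Plate-scaled ratios behind the calls are not deposited; printed light signals are raw; many rows marked increased or decreased are still called inactive.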 A plus sign joins genes that one reagent is predicted to hit. No sequences are given here.

no.	gene	dsRNA	siRNA reporter hit score	stable siRNA reporter change	miRNA reporter change	stable assay Renilla, run 1 (luminescence)	stable assay firefly, run 1 (luminescence)	call
1	CG6429	DRSC06986				7242	4.47e5	inactive
2	CG17776	DRSC18136				5811	3.78e5	inactive
3	Eph (Eph receptor tyrosine kinase)	DRSC17164				6715	4.30e5	inactive
4	Pex2 (Peroxin 2)	DRSC10770				8279	5.00e5	inactive
5	CG12395	DRSC19453				3452	2.90e5	inactive
6	CG31528	DRSC12003				5642	3.09e5	inactive
7	Tsp66A + CG42661 + CG42660	DRSC10233				7308	4.62e5	inactive
8	Jon74E (Jonah 74E)	DRSC10617				8038	5.11e5	inactive
9	Cyp49a1 (Cytochrome P450 49a1)	DRSC06737			reporter ratio lowered past the hit cutoff	6319	3.66e5	inactive
10	Cyp49a1 (Cytochrome P450 49a1)	DRSC07367				6799	4.39e5	inactive
11	CG33096	DRSC14440				8734	3.71e5	inactive
12	Gyg (Glycogenin)	DRSC03850				4607	3.78e5	inactive
13	Gyg (Glycogenin)	DRSC04556				6196	4.42e5	inactive
14	dsf (dissatisfaction)	DRSC03524				7634	3.33e5	inactive
15	CtBP (C-terminal Binding Protein)	DRSC16617				7652	3.71e5	inactive
16	CG32299 + CG32298	DRSC07980				5847	3.92e5	inactive
17	CG32299 + CG32298	DRSC22354				8182	5.57e5	inactive
18	CG14000 + bchs	DRSC02333			reporter ratio raised past the hit cutoff	8782	4.11e5	inactive
19	CG17124	DRSC02580				6876	4.32e5	inactive
20	Cortactin	DRSC16612				7699	2.78e5	inactive
21	CG8031	DRSC16364				8307	4.85e5	inactive
22	CG4968	DRSC02794				91624	4.53e5	inactive
23	pnut (peanut)	DRSC07666				6850	2.58e5	inactive
24	ais (aramis)	DRSC10523				7560	2.70e5	inactive
25	CG6209	DRSC06968				5834	2.86e5	inactive
26	CG12147	DRSC12192				5703	3.66e5	inactive
27	CG4766	DRSC17736				5091	3.89e5	inactive
28	Tsp42Ec (Tetraspanin 42Ec)	DRSC06192				6640	4.01e5	inactive
29	CG9240	DRSC20177				4872	3.75e5	inactive
30	CG5506	DRSC10511				8924	4.44e5	inactive
31	RhoGAP18B (Rho GTPase activating protein at 18B)	DRSC19763				6463	3.63e5	inactive
32	RhoGAP18B (Rho GTPase activating protein at 18B)	DRSC20047				5671	3.75e5	inactive
33	RhoGAP18B (Rho GTPase activating protein at 18B)	DRSC20048				6462	3.55e5	inactive
34	RhoGAP18B (Rho GTPase activating protein at 18B)	DRSC20049				5658	3.59e5	inactive
35	CG43896	DRSC10754				6274	4.04e5	inactive
36	CG15225	DRSC04232				7460	4.23e5	inactive
37	CG15225	DRSC23269				3988	3.09e5	inactive
38	CG15256	DRSC01940				8566	5.05e5	inactive
39	peg (pegasus)	DRSC15216				8038	3.35e5	inactive
40	Tehao	DRSC03449				7375	4.43e5	inactive
41	CG13360	DRSC18536		reporter ratio lowered past the hit cutoff		2728	3.39e5	inactive
42	CG13360	DRSC28479			reporter ratio lowered past the hit cutoff			inactive
43	CG31798	DRSC01702				5568	3.01e5	inactive
44	btd (buttonhead)	DRSC18747				5698	4.15e5	inactive
45	p115	DRSC18813				5280	2.97e5	inactive
46	kirre (kin of irre)	DRSC18785				7250	3.87e5	inactive
47	spel1 (spellchecker1)	DRSC03617				7631	4.17e5	inactive
48	Nadk2 (NAD kinase 2, mitochondrial)	DRSC07072				7444	3.42e5	inactive
49	CG15395	DRSC00409				7135	3.84e5	inactive
50	Sil1 (Sil1 nucleotide exchange factor)	DRSC14242				11598	5.34e5	inactive
51	Drep1 (DNA fragmentation factor-related protein 1)	DRSC07527				5247	3.53e5	inactive
52	Vajk2	DRSC02540				7994	4.61e5	inactive
53	CG2225	DRSC03722				10511	1.11e6	inactive
54	CG2225	DRSC03723				6928	4.62e5	inactive
55	Nha1 (Na[+]/H[+] hydrogen antiporter 1)	DRSC02109				11862	4.67e5	inactive
56	CG31199	DRSC15284				7979	3.51e5	inactive
57	CG4408	DRSC15574				9639	3.58e5	inactive
58	CG17327	DRSC15225		reporter ratio lowered past the hit cutoff		6448	7.26e5	inactive
59	CG1785	DRSC18139				8538	4.81e5	inactive
60	boil (boilerman)	DRSC17872				6123	3.19e5	inactive
61	CG4459	DRSC15582				7943	3.67e5	inactive
62	Mlh1	DRSC07473				8498	4.34e5	inactive
63	CG10041	DRSC14179				7962	5.07e5	inactive
64	CG6739	DRSC02987				7142	4.30e5	inactive
65	CG17380	DRSC15230				6938	3.44e5	inactive
66	mag (magro)	DRSC11787				10022	3.35e5	inactive
67	CG32638	DRSC18968				5631	4.73e5	inactive
68	run (runt)	DRSC20584				7563	4.54e5	inactive
69	run (runt)	DRSC21515				8689	4.82e5	inactive
70	CG13908 (retired record)	DRSC08378				5950	4.36e5	inactive
71	CG1924	DRSC19823				4332	3.91e5	inactive
72	CG13679	DRSC10037				5035	3.87e5	inactive
73	CG13679	DRSC22749				3407	3.69e5	inactive
74	CG9877	DRSC04587				6674	4.33e5	inactive
75	CG13643	DRSC14641				5683	2.56e5	inactive
76	CG13643	DRSC14642				7380	4.03e5	inactive
77	CG30020	DRSC06252				3879	4.36e5	inactive
78	CG30020	DRSC06730	-3			7154	4.51e5	inactive
79	Fntb (Farnesyl transferase beta subunit)	DRSC15244				7290	2.85e5	inactive
80	bai (baiser)	DRSC14388				6516	3.47e5	inactive
81	CG14628	DRSC18626				5563	3.23e5	inactive
82	Rab1	DRSC16808				6560	3.78e5	inactive
83	Bug22 (Basal body up regulated gene 22)	DRSC02842				8470	3.98e5	inactive

12 of these entries, set out differently:
| gene | dsRNA | siRNA reporter hit score | stable siRNA reporter change | miRNA reporter change | stable assay Renilla, run 1 (luminescence) | stable assay firefly, run 1 (luminescence) | call |
| --- | --- | --- | --- | --- | --- | --- | --- |
| CG13908 (retired record) | DRSC08378 | – | – | – | 5950 | 4.36e5 | inactive |
| CG1924 | DRSC19823 | – | – | – | 4332 | 3.91e5 | inactive |
| CG13679 | DRSC10037 | – | – | – | 5035 | 3.87e5 | inactive |
| CG13679 | DRSC22749 | – | – | – | 3407 | 3.69e5 | inactive |
| CG9877 | DRSC04587 | – | – | – | 6674 | 4.33e5 | inactive |
| CG13643 | DRSC14641 | – | – | – | 5683 | 2.56e5 | inactive |
| CG13643 | DRSC14642 | – | – | – | 7380 | 4.03e5 | inactive |
| CG30020 | DRSC06252 | – | – | – | 3879 | 4.36e5 | inactive |
| CG30020 | DRSC06730 | -3 | – | – | 7154 | 4.51e5 | inactive |
| Fntb (Farnesyl transferase beta subunit) | DRSC15244 | – | – | – | 7290 | 2.85e5 | inactive |
| bai (baiser) | DRSC14388 | – | – | – | 6516 | 3.47e5 | inactive |
| CG14628 | DRSC18626 | – | – | – | 5563 | 3.23e5 | inactive |
